Laboratory results as given in PubChem BioAssay AID1671190 (National Center for Advancing Translational Sciences (NCATS), 2021).
Values joined by “and” are separate entries in the source; they are usually repeats but may differ in a detail not shown here. Equal entries are not always repeated. The whole screen tested about 580,000 compounds, of which about 6,100 (1.1%) were called active. This list was built around the results that the source calls inconclusive (neither active nor inactive); the mix of calls is not that of the screen. Calls come from the whole dose curve; as a rule, active = well fitted inhibition curve with a large enough effect; inconclusive = small, poorly fitted or top-dose-only effect, or another doubt; inactive = no such curve, though single readings can be large or run the other way. Potencies of inconclusive entries are doubtful fits and often do not repeat.

Sequences of proteins named here, by UniProt entry; tags and fusion partners are left off. A change or cut given only in a name is not applied to a line headed by its entry.
UniProt P18054: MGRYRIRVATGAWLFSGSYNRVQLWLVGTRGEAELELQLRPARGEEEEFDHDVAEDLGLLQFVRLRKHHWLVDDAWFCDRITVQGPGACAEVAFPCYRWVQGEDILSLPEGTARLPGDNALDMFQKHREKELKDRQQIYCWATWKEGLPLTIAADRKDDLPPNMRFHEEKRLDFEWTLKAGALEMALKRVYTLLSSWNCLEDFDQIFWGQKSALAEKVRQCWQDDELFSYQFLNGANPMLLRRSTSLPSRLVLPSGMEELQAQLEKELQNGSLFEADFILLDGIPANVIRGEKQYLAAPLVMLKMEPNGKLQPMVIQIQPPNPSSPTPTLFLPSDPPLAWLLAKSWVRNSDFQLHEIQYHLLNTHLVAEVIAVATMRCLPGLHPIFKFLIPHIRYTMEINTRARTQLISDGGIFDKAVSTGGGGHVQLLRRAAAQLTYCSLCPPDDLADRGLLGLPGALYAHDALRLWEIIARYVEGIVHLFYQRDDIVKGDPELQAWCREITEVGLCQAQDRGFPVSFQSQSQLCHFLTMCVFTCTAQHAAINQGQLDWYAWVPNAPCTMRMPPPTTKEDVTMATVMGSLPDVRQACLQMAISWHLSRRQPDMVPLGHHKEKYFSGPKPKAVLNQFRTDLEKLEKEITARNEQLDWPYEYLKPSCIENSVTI

target: Polyunsaturated fatty acid lipoxygenase ALOX12 (Homo sapiens) (UniProt P18054); test: Primary qHTS assay for inhibitors of human arachidonate 12S-lipoxygenase (ALOX12): Round 2; conditions: purified 12hLO, xylenol orange hydroperoxide absorbance; activity change, negative = inhibition: at 108 µM (top of the series) unless noted
Procedure, shortened: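 Purified human 12hLO (150 nM final) in 25 mM Hepes, 0.01% Triton X-100, pH 7.0 was preincubated 15 min at room temperature with compound. Then 40 uM arachidonic acid was added, 30 min. Hydroperoxide was read by Fe-XO absorbance ratio 573/405 nm.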
% is set by controls: 0 for no effect and ±100 for the full control effect; potency is the fitted concentration of half-maximal effect.

| SMILES | Potency | activity change, negative = inhibition |
| --- | --- | --- |
| CC(C)(C)c1cccc(/C=N/O)c1O | inconclusive: 112 µM [inhibitor, partial curve, poor fit] |  |
| Cc1cc(N2CCOCC2)nc2ccc(NC(=S)NCc3ccc4c(c3)OCO4)cc12 |  | inactive: -23.3% |
| Cc1cc(C)nc(SCc2cn3cc(Cl)ccc3n2)n1 | inconclusive: 89.1 µM [inhibitor, single point] |  |
| CNC1CCN(C(=O)c2cnc(C34CC5CC(CC(C5)C3)C4)[nH]c2=O)CC1 | inconclusive: 12.6 µM [inhibitor, full curve] |  |
| Cc1ccc(-n2nnnc2SCC(=O)N(Cc2ccco2)C2=CCCCC2)cc1 | inconclusive: 44.7 µM [inhibitor, partial curve, poor fit] |  |
| COc1ccc(CCNC(=O)c2ccn[nH]2)cc1OC | inconclusive: 89.1 µM [inhibitor, partial curve, poor fit] |  |
| COc1cc(OC)cc(C(=O)NC(=S)NNC(=O)Cc2cccs2)c1 | inconclusive: 50.1 µM [inhibitor, partial curve, poor fit] |  |
| COCCNC(=S)NCc1cccs1 | inconclusive: 44.7 µM [inhibitor, partial curve, poor fit] |  |
| CCCCOc1ccccc1C(=O)NNC(=S)NC(=O)c1ccccc1[N+](=O)[O-] | inconclusive: 31.6 µM [inhibitor, partial curve] |  |
| CC(C)C(C)NC(=O)COc1ccc(OCc2ccccc2)cc1 (stereo not drawn) |  | inactive: 14.7% |
| CN(C)CCN=Cc1c(O)n(Cc2ccc3c(c2)OCO3)c(=O)c2ccccc12 |  | inactive: 8% |
| COc1ccc(C(=O)NNC(=S)NC(=O)c2cccc([N+](=O)[O-])c2)cc1 | inconclusive: 126 µM [inhibitor, single point] |  |
| CCCOC(=O)C(C#N)c1nc2ccccc2nc1Cl (stereo not drawn) | active: 17.8 µM |  |
| COc1cccc(/C=C/C(=O)Nc2cccc(CO)c2)c1 | inconclusive: 112 µM [inhibitor, partial curve, poor fit] |  |
| CCN1CCN(c2nc(SC)nc(-c3ccc(Cl)cc3)c2C#N)CC1 | inconclusive: 35.5 µM [inhibitor, partial curve] |  |
| CC(Cc1cccc(C(F)(F)F)c1)NCCOC(=O)c1ccccc1 (stereo not drawn) | inconclusive: 14.4 µM [inhibitor, partial curve, poor fit] and inconclusive: 39.8 µM [inhibitor, partial curve] and inconclusive: 44.7 µM [inhibitor, partial curve, poor fit] |  |
| COC(=O)CSc1nc2cc3c(cc2cc1C)OCO3 |  | inactive: 3.44% |
| CCCC(=O)N1N=C(c2cccc(NS(=O)(=O)CC)c2)CC1c1ccco1 (stereo not drawn) | inconclusive: 70.8 µM [inhibitor, single point] |  |
| O=C(Cn1nc2c(cc1=O)CCCC2)NC1CCCc2c1[nH]c1ccccc21 (stereo not drawn) | active: 35.5 µM |  |
| CCC(CC)C(=O)NC1CCN(c2cnn(CC)c(=O)c2)CC1 | inconclusive: 10 µM [inhibitor, partial curve, poor fit] |  |
| Cc1cc(/C=C(\C#N)c2ccc(F)cc2)c(C)n1C | inconclusive: 39.8 µM [inhibitor, partial curve, poor fit] |  |
| O=C1Nc2ccc(Br)cc2/C1=C/C(=O)c1ccc2c(c1)OCO2 | inconclusive: 2 µM [inhibitor, full curve, poor fit] |  |
| CN(C)C(=O)c1ccnc(-c2nnc3ccc(N(C)Cc4ccccc4)nn23)c1 | inconclusive: 39.8 µM [inhibitor, partial curve, poor fit] |  |

Two of the compounds above, with tabs:
SMILES	Potency	activity change, negative = inhibition
COc1ccc(C(=O)NNC(=S)NC(=O)c2cccc([N+](=O)[O-])c2)cc1	inconclusive: 126 µM [inhibitor, single point]	
CCCC(=O)N1N=C(c2cccc(NS(=O)(=O)CC)c2)CC1c1ccco1 (stereo not drawn)	inconclusive: 70.8 µM [inhibitor, single point]	

The list goes on:

| SMILES | Potency | activity change, negative = inhibition |
| --- | --- | --- |
| Clc1ccc(Cl)c(OCCCCNCc2ccccc2)c1 | inconclusive: 5.01 µM [inhibitor, full curve] |  |
| Cc1c(NC(=O)COC(=O)C2(c3ccc(Cl)cc3)CCCC2)cccc1[N+](=O)[O-] | inconclusive: 11.2 µM [inhibitor, full curve, poor fit] |  |
| CCCN1Cc2cccc(C(=O)NC(CC(=O)OCC)c3ccc(OC(C)C)cc3)c2C1=O (stereo not drawn) |  | inactive: -3.77% |
| CCCCC/C=C\C/C=C\C/C=C\C/C=C\CCCCCC(=O)O |  | inactive: -4.33% [at 12.5 µM] |
| O=C(/C=C/c1ccc(O)c(O)c1)OC(Cc1ccc(O)c(O)c1)C(=O)O (stereo not drawn) | inconclusive: 44.7 µM [inhibitor, partial curve, poor fit] |  |
| CN(C)c1ccc2c(O)cc(=O)n(C)c2c1 |  | inactive: -7.96% |
| O=C(NCCCCNC(=O)c1ccccc1Cl)c1ccccc1Cl | inconclusive: 39.8 µM [inhibitor, partial curve, poor fit] |  |
| O=C(COc1ccc(F)cc1)NCc1ccc2c(c1)CCN2C(=O)c1ccc(F)cc1 | inconclusive: 100 µM [inhibitor, partial curve, poor fit] |  |
| CCc1cccc2c(C(=O)COC(=O)c3ccc(C)s3)c[nH]c12 |  | inactive: 45.3% |
| CCOP(=O)(OCC)C(Nc1cc(Cl)cc(Cl)c1)c1cccc(O)c1 (stereo not drawn) | inconclusive: 89.1 µM [inhibitor, single point] |  |
| O=C1CC(=O)N(Cc2cccs2)C(=O)N1 |  | inactive: -11.2% |
| O=C(Nc1ccc(F)c(Cl)c1)C1CCN(c2ncccn2)CC1 | inconclusive: 79.4 µM [inhibitor, partial curve, poor fit] |  |
| CC(C)CN1C(=O)/C(=C/c2ccco2)NC1=S | active: 28.2 µM |  |
| COC(=O)c1c(-c2ccccc2)csc1N | inconclusive: 44.7 µM [inhibitor, partial curve, poor fit] |  |
| O=C(NNC(=O)C1CCCCC1)C(=O)NC1CCCCC1 |  | inactive: 9.41% |
| CCOC(=O)/C=C(\C)N1N=C(c2ccccc2)CC1c1ccccc1 (stereo not drawn) |  | inactive: 115% |
| CCOC(=O)C1CCN(Cc2cc(=O)oc3ccc(Cl)cc23)CC1 |  | inactive: 8.17% |
| CCCCc1n[nH]c2c1/C(=N/O)CC(C)(C)C2 | inconclusive: 7.08 µM [inhibitor, full curve, poor fit] |  |
| C=CCC(Nc1ccccc1)C12C=CC(O1)C(C(=O)OC)=C2C(=O)OC (stereo not drawn) |  | inactive: 48.1% |
| Fc1ccc2c(c1)nc1n2[C@@H](CNCc2ccncc2F)COC1 |  | inactive: -5.7% [at 176 µM] |
| Cc1nn(-c2ccccc2)c(C)c1CN(C)S(=O)(=O)c1ccc(Cl)c(Cl)c1 |  | inactive: -0.994% |
| COc1ccc(NC(=O)CCc2c[nH]c3ccccc23)cc1OC | inconclusive: 79.4 µM [inhibitor, single point] |  |
| O=C(Nc1nccs1)C1CCCN(S(=O)(=O)c2cccnc2)C1 (stereo not drawn) |  | inactive: 342% |

| SMILES | Potency | activity change, negative = inhibition |
| --- | --- | --- |
| O=C(CNC(=S)N(Cc1ccccc1)Cc1ccccc1F)NCCc1ccc(Cl)cc1 | inconclusive: 44.7 µM [inhibitor, partial curve, poor fit] |  |
| O=C(NC1CCS(=O)(=O)C1)/C(=C/c1ccco1)NC(=O)c1ccccc1 (stereo not drawn) | inconclusive: 28.2 µM [inhibitor, partial curve] |  |
| CCC(=O)NC(/C=C/c1ccccc1)c1cc([N+](=O)[O-])c2cccnc2c1O (stereo not drawn) | inconclusive: 2.24 µM [inhibitor, full curve, poor fit] |  |
| CN(C)C[C@H]1O[C@@H](CO)[C@@H](O)[C@H]1N1CCN(c2ccc(F)cc2)CC1 | inconclusive: 3.98 µM [inhibitor, full curve] |  |
| COC(=O)[C@H]1[C@@H](C)N(Cc2ccccc2)C(=O)N[C@H]1c1cccc(C(F)(F)F)c1 | inconclusive: 126 µM [inhibitor, single point] |  |
| Fc1ccccc1/C=C1\CCCC2=C1Nc1nnnn1C2c1ccccc1F (stereo not drawn) |  | inactive: -17.5% |
| Cc1c([N+](=O)[O-])c([N+](=O)[O-])nn1CC(=O)NCc1cccnc1 | inconclusive: 126 µM [inhibitor, partial curve, poor fit] |  |
| O=[N+]([O-])c1cc(/C=N/O)ccc1Sc1ccccc1 | inconclusive: 89.1 µM [inhibitor, single point] |  |
| COc1cc(CN2CCC(C(O)(c3ccccc3)c3ccccc3)CC2)ccc1OCc1ccccc1 | inconclusive: 7.94 µM [inhibitor, full curve, poor fit] |  |
| Cc1ccc(NC(=O)c2ccc(Cl)c(N3C(=O)C=CC3=O)c2)cc1 | inconclusive: 0.398 µM [inhibitor, full curve, poor fit] |  |
| COc1ccc(/C=N/NC(=O)c2sccc2C)c2ccccc12 |  | inactive: 0% |
| COc1ccc(NC(=S)NC(=O)c2cncc(Br)c2)c(OC)c1 |  | inactive: 1.94% |
| O=C(Nc1c(NC2CCCCC2)c2ccccc2oc1=O)c1ccc(C(F)(F)F)cc1 |  | inactive: -15.6% |
| OCC1OC(n2nc3ccccc3n2)C(O)C(O)C1O (stereo not drawn) |  | inactive: 15.8% |
| C[C@H](NC(=O)c1ncn2c1C(=O)N(C)CC2)C(=O)OC(C)(C)C | inconclusive: 31.6 µM [inhibitor, single point] |  |
| OC1CCNC(=S)N1c1ccccc1 (stereo not drawn) | inconclusive: 89.1 µM [inhibitor, partial curve, poor fit] |  |
| O=C(N[C@H]1CCN2C(=O)c3cc(-c4ccccc4F)ccc3NC(=O)[C@H]12)C1CCCC1 |  | inactive: 8.32% [at 176 µM] |
| Cc1cc(C)c(NC(=O)CN(c2ccccc2)S(=O)(=O)N(C)C)c(C)c1 | inconclusive: 6.31 µM [inhibitor, full curve, poor fit] |  |
| Cc1cc(C)cc(C(=O)NCC(=O)N2CCC3(CC2)NCCc2[nH]cnc23)c1 | inconclusive: 3.16 µM [inhibitor, full curve, poor fit] |  |
| COc1ccc2nc(C[C@@H]3C[C@@H](C(C)C)[C@H](CNCc4ccccn4)C=C3C)[nH]c2c1 |  | inactive: 35.6% [at 176 µM] |
| COc1cccc(N2CCN(C(=O)c3ccc4c(c3)N(C)C3CCCCCN3C4=O)CC2)c1 (stereo not drawn) |  | inactive: -18.6% |
| C#Cc1cccc(Nc2ncnc3cc(OC)c(OCCCCCCC(=O)NO)cc23)c1 | inconclusive: 30.6 µM [inhibitor, partial curve, poor fit] |  |
